Data as given in PubChem BioAssay AID504808 (Drosophila RNAi Screening Center, 2011)

Test: 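Genes whose loss lifts activity of an E2F-responsive reporter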 (primary screen)
Cell system: Drosophila S2 cells
Reagent: long dsRNA against Drosophila genes
Measurement: 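Dual luciferase plate measurements; E2F-specific signal taken as firefly over Renilla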
Reading the numbers: E2F firefly: higher = more E2F reporter activity; Renilla normaliser: higher = more normaliser reporter signal
Call rule: 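Called active if the normalised E2F reporter went up by over 50%; the cutoff is arbitrary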
The deposit covers about 21,000 reagents; this is an unselected part of those that have a named target and a result. Of all reagents, 18 (0.084%) are marked active. 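Raw counts without plate normalisation, one of two replicates; the ratio scores behind the calls were not deposited.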 Reagents against one gene are numbered here. A plus sign joins genes that one reagent is predicted to hit. Not given: the amount of reagent, the time to read-out.

| Gene | dsRNA no. | E2F firefly, rep 1 | Renilla normaliser, rep 1 | activity call |
| --- | --- | --- | --- | --- |
| CG14069 | 1 | 1.35e5 | 4974 | inactive |
| Coq4 + frc | 1 | 1.57e5 | 8186 | inactive |
| Coq4 + frc | 2 | 75200 | 4434 | inactive |
| Try29F | 1 | 1.58e5 | 5387 | inactive |
| Cyp28d1 | 1 | 83280 | 3882 | inactive |
| CG8237 | 1 | 2406 | 162 | inactive |
| Sfp26Ad | 1 | 1.12e5 | 5149 | inactive |
| CG6567 | 1 | 1.31e5 | 6772 | inactive |
| br | 1 | 97193 | 2863 | inactive |
| br | 2 | 1.16e5 | 5824 | inactive |
| br | 3 | 62913 | 3745 | inactive |
| br | 4 | 1.23e5 | 4845 | inactive |
| CG40053 (retired record) | 1 | 77670 | 2615 | inactive |
| Cyp4g1 | 1 | 1690 | 936 | inactive |
| CG17270 | 1 | 60907 | 3571 | inactive |
| CG12594 | 1 | 1.41e5 | 6958 | inactive |
| CG10341 | 1 | 75963 | 3219 | inactive |
| Hmbs | 1 | 72422 | 3398 | inactive |
| l(2)34Fd | 1 | 79532 | 3835 | inactive |
| ODA-Dnal1 | 1 | 1.41e5 | 4944 | inactive |
| CG30484 | 1 | 1.21e5 | 4602 | inactive |
| CG31121 | 1 | 1.19e5 | 5248 | inactive |
| CG31121 | 2 | 1.07e5 | 5843 | inactive |
| CG4151 | 1 | 1.24e5 | 5213 | inactive |
| Mps1 | 1 | 66357 | 4562 | inactive |
| CG4074 + CG4186 | 1 | 1.42e5 | 6535 | inactive |
| CG14892 | 1 | 93750 | 6336 | inactive |
| heix | 1 | 59357 | 3271 | inactive |
| mnd | 1 | 1.61e5 | 8009 | inactive |
| Sec63 | 1 | 1.00e5 | 4114 | inactive |
| Ugt35E1 | 1 | 1.57e5 | 6814 | inactive |
| CG17195 | 1 | 1.19e5 | 6227 | inactive |
| eIF3m | 1 | 2300 | 239 | inactive |
| CG3517 | 1 | 1.55e5 | 7197 | inactive |
| Cyp6t2Psi | 1 | 1.17e5 | 4276 | inactive |
| egr | 1 | 1.41e5 | 4820 | inactive |
| CAH15 | 1 | 1.18e5 | 4922 | inactive |
| CG31515 | 1 | 90059 | 2400 | inactive |
| CR33317 | 1 | 1.06e5 | 4605 | inactive |
| djl | 1 | 1.22e5 | 6972 | inactive |
| Debcl | 1 | 74162 | 3372 | inactive |
| RIOK1 | 1 | 69845 | 3176 | inactive |
| CG11037 | 1 | 1.17e5 | 6470 | inactive |
| betaTub85D | 1 | 1.16e5 | 5968 | inactive |
| btd | 1 | 1.43e5 | 6497 | inactive |
| CG14851 | 1 | 1.34e5 | 7433 | inactive |
| Jon99Ci | 1 | 1.23e5 | 6940 | inactive |
| QIL1 | 1 | 1.11e5 | 7884 | inactive |
| Prp5 | 1 | 1.51e5 | 5326 | inactive |
| CG1622 | 1 | 7718 | 816 | inactive |
| Flo1 | 1 | 80985 | 3478 | inactive |
| CG10283 | 1 | 73789 | 3660 | inactive |
| fs(1)Yb | 1 | 1.23e5 | 5384 | inactive |
| CG42523 | 1 | 1.25e5 | 5012 | inactive |
| mus301 | 1 | 89419 | 3697 | inactive |
| CG13992 | 1 | 1.52e5 | 5594 | inactive |
| CG12522 | 1 | 1.06e5 | 4002 | inactive |
